US20150232546A1 (THROMBOGENICS, published 2015)
These are yes or no findings as the source states them, for the method shown. Some binding calls cover weakened binding; strength is not graded here.

Sequences of proteins named here, by UniProt entry; tags and fusion partners are left off. Residues count along the entry.
UniProt Q9NRA1, residues 23-345: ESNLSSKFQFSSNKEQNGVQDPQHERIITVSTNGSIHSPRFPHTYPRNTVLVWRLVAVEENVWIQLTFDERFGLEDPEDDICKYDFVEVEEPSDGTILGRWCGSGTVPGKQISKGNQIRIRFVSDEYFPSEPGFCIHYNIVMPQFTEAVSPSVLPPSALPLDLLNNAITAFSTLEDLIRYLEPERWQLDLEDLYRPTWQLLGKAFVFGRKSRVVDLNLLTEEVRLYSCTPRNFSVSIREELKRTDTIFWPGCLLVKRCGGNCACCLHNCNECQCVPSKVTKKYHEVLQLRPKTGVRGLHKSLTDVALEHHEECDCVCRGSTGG

Experiments:
[1] = molecular target: full-length human PDGF-C (Example 6) (human) (UniProt Q9NRA1); assay: ELISA
[2] = molecular target: T1, human PDGF-C peptide no. 28 (human); assay: peptide ELISA
T1 sequence (peptide, N-terminally biotinylated): IHYNIVMPQFTEAVS

[3] = molecular target: T2, human PDGF-C peptide no. 34 (human); assay: peptide ELISA
T2 sequence (peptide, N-terminally biotinylated): NAITAFSTLEDLIRY

[4] = molecular target: T3, human PDGF-C peptide no. 26 (human); assay: peptide ELISA
T3 sequence (peptide, N-terminally biotinylated): EYFPSEPGFCIHYNI

[5] = molecular target: T4, human PDGF-C peptide no. 8 (human); assay: peptide ELISA
T4 sequence (peptide, N-terminally biotinylated): IHSPRFPHTYPRNTV

[6] = molecular target: T5, human PDGF-C peptide no. 30 (human); assay: peptide ELISA
T5 sequence (peptide, N-terminally biotinylated): TEAVSPSVLPPSALP

[7] = molecular target: T6, human PDGF-C peptide no. 49 (human); assay: peptide ELISA
T6 sequence (peptide, N-terminally biotinylated): LKRTDTIFWPGCLLV

[8] = molecular target: T7, human PDGF-C peptide no. 27 (human); assay: peptide ELISA
T7 peptide: Biotin-EPGFCIHYNIVMPQF

[9] = molecular target: T8, human PDGF-C peptide no. 38 (human); assay: peptide ELISA
T8 sequence (peptide, N-terminally biotinylated): WQLDLEDLYRPTWQL

[10] = molecular target: T9, human PDGF-C peptide no. 10 (human); assay: peptide ELISA
T9 sequence (peptide, N-terminally biotinylated): PRNTVLVWRLVAVEE

[11] = molecular target: T10, human PDGF-C peptide no. 22 (human); assay: peptide ELISA
T10 sequence (peptide, N-terminally biotinylated): TVPGKQISKGNQIRI

[12] = molecular target: T11, human PDGF-C peptide no. 39 (human); assay: peptide ELISA
T11 sequence (peptide, N-terminally biotinylated): EDLYRPTWQLLGKAF

[13] = molecular target: T12, human PDGF-C peptide no. 55 (human); assay: peptide ELISA
T12 sequence (peptide, N-terminally biotinylated): ECQCVPSKVTKKYHE

[14] = molecular target: T13, human PDGF-C peptide no. 25 (human); assay: peptide ELISA
T13 sequence (peptide, N-terminally biotinylated): RFVSDEYFPSEPGFC

[15] = molecular target: T14, human PDGF-C peptide no. 18 (human); assay: peptide ELISA
T14 sequence (peptide, N-terminally biotinylated): FVEVEEPSDGTILGR

[16] = molecular target: T15, human PDGF-C peptide no. 56 (human); assay: peptide ELISA
T15 sequence (peptide, N-terminally biotinylated): PSKVTKKYHEVLQLR

[17] = molecular target: T16, human PDGF-C peptide no. 50 (human); assay: peptide ELISA
T16 sequence (peptide, N-terminally biotinylated): TIFWPGCLLVKRCGG

[18] = molecular target: T17, human PDGF-C peptide no. 54 (human); assay: peptide ELISA
T17 sequence (peptide, N-terminally biotinylated): LHNCNECQCVPSKVT

[19] = molecular target: T18, human PDGF-C peptide no. 13 (human); assay: peptide ELISA
T18 sequence (peptide, N-terminally biotinylated): NVWIQLTFDERFGLE

[20] = molecular target: T19, human PDGF-C peptide no. 44 (human); assay: peptide ELISA
T19 sequence (peptide, N-terminally biotinylated): LNLLTEEVRLYSCTP

[21] = molecular target: T20, human PDGF-C peptide no. 17 (human); assay: peptide ELISA
T20 sequence (peptide, N-terminally biotinylated): ICKYDFVEVEEPSDG

[22] = molecular target: T21, human PDGF-C peptide no. 43 (human); assay: peptide ELISA
T21 sequence (peptide, N-terminally biotinylated): SRVVDLNLLTEEVRL

[23] = molecular target: T22, human PDGF-C peptide no. 32 (human); assay: peptide ELISA
T22 sequence (peptide, N-terminally biotinylated): PSALPLDLLNNAITA

[24] = molecular target: T23, human PDGF-C peptide no. 59 (human); assay: peptide ELISA
T23 sequence (peptide, N-terminally biotinylated): PKTGVRGLHKSLTDV

[25] = molecular target: T24, human PDGF-C peptide no. 48 (human); assay: peptide ELISA
T24 sequence (peptide, N-terminally biotinylated): SIREELKRTDTIFWP

[26] = molecular target: T25, human PDGF-C peptide no. 12 (human); assay: peptide ELISA
T25 sequence (peptide, N-terminally biotinylated): VAVEENVWIQLTFDE

[27] = molecular target: T26, human PDGF-C peptide no. 35 (human); assay: peptide ELISA
T26 sequence (peptide, N-terminally biotinylated): FSTLEDLIRYLEPER

[28] = molecular target: T27, human PDGF-C peptide no. 29 (human); assay: peptide ELISA
T27 sequence (peptide, N-terminally biotinylated): VMPQFTEAVSPSVLP

[29] = molecular target: T28, human PDGF-C peptide no. 37 (human); assay: peptide ELISA
T28 sequence (peptide, N-terminally biotinylated): LEPERWQLDLEDLYR

[30] = molecular target: T29, human PDGF-C peptide no. 23 (human); assay: peptide ELISA
T29 sequence (peptide, N-terminally biotinylated): QISKGNQIRIRFVSD

[31] = molecular target: T30, human PDGF-C peptide no. 21 (human); assay: peptide ELISA
T30 sequence (peptide, N-terminally biotinylated): WCGSGTVPGKQISKG

[32] = molecular target: T31, human PDGF-C peptide no. 1 (human); assay: peptide ELISA
T31 sequence (peptide, N-terminally biotinylated): ESNLSSKFQFSSNKE

[33] = molecular target: T32, human PDGF-C peptide no. 57 (human); assay: peptide ELISA
T32 sequence (peptide, N-terminally biotinylated): KKYHEVLQLRPKTGV

[34] = molecular target: T33, human PDGF-C peptide no. 16 (human); assay: peptide ELISA
T33 sequence (peptide, N-terminally biotinylated): DPEDDICKYDFVEVE

[35] = molecular target: T34, human PDGF-C peptide no. 62 (human); assay: peptide ELISA
T34 sequence (peptide, N-terminally biotinylated): ALEHHEECDCVCRGS

[36] = molecular target: T35, human PDGF-C peptide no. 2 (human); assay: peptide ELISA
T35 sequence (peptide, N-terminally biotinylated): SKFQFSSNKEQNGVQ

[37] = molecular target: T36, human PDGF-C peptide no. 41 (human); assay: peptide ELISA
T36 sequence (peptide, N-terminally biotinylated): LGKAFVFGRKSRVVD

[38] = molecular target: T37, human PDGF-C peptide no. 6 (human); assay: peptide ELISA
T37 sequence (peptide, N-terminally biotinylated): RIITVSTNGSIHSPR

[39] = molecular target: T38, human PDGF-C peptide no. 4 (human); assay: peptide ELISA
T38 sequence (peptide, N-terminally biotinylated): QNGVQDPQHERIITV

[40] = molecular target: T39, human PDGF-C peptide no. 14 (human); assay: peptide ELISA
T39 sequence (peptide, N-terminally biotinylated): LTFDERFGLEDPEDD

[41] = molecular target: T40, human PDGF-C peptide no. 63 (human); assay: peptide ELISA
T40 sequence (peptide, N-terminally biotinylated): EECDCVCRGSTGG

[42] = molecular target: T41, human PDGF-C peptide no. 15 (human); assay: peptide ELISA
T41 sequence (peptide, N-terminally biotinylated): RFGLEDPEDDICKYD

[43] = molecular target: T42, human PDGF-C peptide no. 36 (human); assay: peptide ELISA
T42 sequence (peptide, N-terminally biotinylated): DLIRYLEPERWQLDL

[44] = molecular target: T43, human PDGF-C peptide no. 5 (human); assay: peptide ELISA
T43 sequence (peptide, N-terminally biotinylated): DPQHERIITVSTNGS

[45] = molecular target: T44, human PDGF-C peptide no. 60 (human); assay: peptide ELISA
T44 sequence (peptide, N-terminally biotinylated): RGLHKSLTDVALEHH

[46] = molecular target: T45, human PDGF-C peptide no. 33 (human); assay: peptide ELISA
T45 sequence (peptide, N-terminally biotinylated): LDLLNNAITAFSTLE

[47] = molecular target: T46, human PDGF-C peptide no. 53 (human); assay: peptide ELISA
T46 sequence (peptide, N-terminally biotinylated): NCACCLHNCNECQCV

[48] = molecular target: T47, human PDGF-C peptide no. 46 (human); assay: peptide ELISA
T47 sequence (peptide, N-terminally biotinylated): YSCTPRNFSVSIREE

B1: anti-PDGF-C antibody 29H1 (antibody, IgG1, V domains shown)
VH: EVQLVESGGDLVKPGGSLKLSCAASGFTFSNYGMSWVRQTPDKRLEWVATIGSGGHYTYYPDSVKGRFTISRDSAKSTLYLQMSSLRSDDTAIYYCARQAPLWDCSDYWGQGTTLTVSS
VL: DVLMTQTPLSLPVSLGDQASISCRSNQSIVHSNGDTYLEWYLQKPGQSPNLLIYKVSNRFSGVPDRFSGSGSGTDFTLKISRVEAEDLGVYYCFQGSHVPPTFGGGTKLEIK
notes: Mouse monoclonal from hybridoma, IgG1, kappa; also called mAb 29H1; hybridoma LMBP 9487CB
binding [1]: binds
binding [2]: no binding (tested: 1 µg/mL)
binding [3]: no binding (tested: 1 µg/mL)
binding [4]: no binding (tested: 1 µg/mL)
binding [5]: no binding (tested: 1 µg/mL)
binding [6]: no binding (tested: 1 µg/mL)
binding [7]: no binding (tested: 1 µg/mL)
binding [8]: no binding (tested: 1 µg/mL)
binding [9]: no binding (tested: 1 µg/mL)
binding [10]: no binding (tested: 1 µg/mL)
binding [11]: no binding (tested: 1 µg/mL)
binding [12]: no binding (tested: 1 µg/mL)
binding [13]: no binding (tested: 1 µg/mL)
binding [14]: no binding (tested: 1 µg/mL)
binding [15]: no binding (tested: 1 µg/mL)
binding [16]: no binding (tested: 1 µg/mL)
binding [17]: no binding (tested: 1 µg/mL)
binding [18]: no binding (tested: 1 µg/mL)
binding [19]: no binding (tested: 1 µg/mL)
binding [20]: no binding (tested: 1 µg/mL)
binding [21]: no binding (tested: 1 µg/mL)
binding [22]: no binding (tested: 1 µg/mL)
binding [23]: no binding (tested: 1 µg/mL)
binding [24]: no binding (tested: 1 µg/mL)
binding [25]: no binding (tested: 1 µg/mL)
binding [26]: no binding (tested: 1 µg/mL)
binding [27]: no binding (tested: 1 µg/mL)
binding [28]: no binding (tested: 1 µg/mL)
binding [29]: no binding (tested: 1 µg/mL)
binding [30]: no binding (tested: 1 µg/mL)
binding [31]: no binding (tested: 1 µg/mL)
binding [32]: no binding (tested: 1 µg/mL)
binding [33]: no binding (tested: 1 µg/mL)
binding [34]: no binding (tested: 1 µg/mL)
binding [35]: no binding (tested: 1 µg/mL)
binding [36]: no binding (tested: 1 µg/mL)
binding [37]: no binding (tested: 1 µg/mL)
binding [38]: no binding (tested: 1 µg/mL)
binding [39]: no binding (tested: 1 µg/mL)
binding [40]: no binding (tested: 1 µg/mL)
binding [41]: no binding (tested: 1 µg/mL)
binding [42]: no binding (tested: 1 µg/mL)
binding [43]: no binding (tested: 1 µg/mL)
binding [44]: no binding (tested: 1 µg/mL)
binding [45]: no binding (tested: 1 µg/mL)
binding [46]: no binding (tested: 1 µg/mL)
binding [47]: no binding (tested: 1 µg/mL)
binding [48]: no binding (tested: 1 µg/mL)
